Experimental data taken from PubChem BioAssay AID485318 (Broad Institute, 2010).
Among all 1,400 compounds or so, fewer than 10 were called active.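 How the source made its calls: active means fluorescence-lowering compounds whose fitted half-maximal concentration is at or below ten times the highest valid dose tested; inconclusive means flat curve at 30 to 70% inhibition, or poor fit; inactive means the rest.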 This is one part of the list.

Sequences of proteins named here, by UniProt entry; tags and fusion partners are left off. A change or cut given only in a name is not applied to a line headed by its entry.
UniProt O15379: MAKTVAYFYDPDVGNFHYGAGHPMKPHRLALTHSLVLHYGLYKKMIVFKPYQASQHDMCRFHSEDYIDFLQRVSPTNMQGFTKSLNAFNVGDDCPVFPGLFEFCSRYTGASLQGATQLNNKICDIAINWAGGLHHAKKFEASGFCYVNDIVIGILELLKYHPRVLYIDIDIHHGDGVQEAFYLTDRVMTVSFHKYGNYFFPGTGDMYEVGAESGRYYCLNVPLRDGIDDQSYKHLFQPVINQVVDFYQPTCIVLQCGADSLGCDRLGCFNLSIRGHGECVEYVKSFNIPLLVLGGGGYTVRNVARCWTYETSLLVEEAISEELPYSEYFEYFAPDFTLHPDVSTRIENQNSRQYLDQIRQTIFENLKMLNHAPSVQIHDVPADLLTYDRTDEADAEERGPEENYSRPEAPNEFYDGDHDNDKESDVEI

The compounds below were run against Histone deacetylase 3 (Homo sapiens) (UniProt O15379) (assay: HDAC3 deacetylase inhibitors, dose response, counter-screen for JMJD2C/GASC1 demethylase inhibitor project, biochemical, fluorescence, cherry-picked samples (AID 485318;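 further: enzyme preincubated with compound before substrate and trypsin were added; 0% = neutral control wells and -100% = SAHA positive control wells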)). Conditions: recombinant HDAC3, fluorogenic peptide/trypsin coupled; at 12 µM (top of the series).

SMILES | activity change, negative = inhibition
O=C(COc1c(CO)cc(Br)cc1CO)NC1CCCc2ccccc21 (centres undefined) | inactive: 0.615%
CC(C)(C)c1ccc(OCCC(=O)NC2=NCCS2)cc1 | inactive: -0.0775%
Cc1ccccc1CNc1nnnn1C | inactive: 1.02%
COc1cccc(C(C[N+](=O)[O-])c2c(C)[nH]n(-c3ccccc3)c2=O)c1 (centres undefined) | inactive: 0.217%
Cc1cc(C)nc(NCc2ccc(Cl)cc2)n1 | inactive: -0.249%
Cc1nn(Cc2ccc([N+](=O)[O-])cc2)c(=O)n1-c1cccc(Cl)c1 | inactive: -0.473%
COc1cccc(Oc2nccc(N(C)C)c2C#N)c1 | inactive: -0.661%
O=C(Cn1cnc2c(OCc3ccccc3)ncnc21)NCCCc1ccccc1 | inactive: -0.642%
Cc1cccnc1Nc1nc(-c2ccc(O)cc2)cs1 | inactive: 0.343%
Cc1ccc(S(=O)(=O)Nc2ccc3c(c2)C(=O)N([C@H](C)CO)C[C@@H](C)[C@@H](CN(C)C(=O)Nc2cccc4ccccc24)O3)cc1 | inactive: 0.0856%
Cc1cc(N/N=C/c2ccc(O)cc2O)nc(-n2nc(C)cc2C)n1 | inactive: 0.372%
CCOc1cc(/C=C\c2[nH]c(=O)[nH]c(=O)c2[N+](=O)[O-])ccc1OC(C)CC (centres undefined) | inactive: -2.06%
C#CCOCCOCCOCCNc1nc(N2CCOCC2)nc(N2CCN(C(=O)[C@H](Cc3cc4ccccc4[nH]3)n3cc([C@@H](N)CC(C)C)nn3)CC2)n1 | inactive: 0.976%
Oc1cccc(/C=N/NC(=S)NCCN2CCOCC2)c1O | inactive: 0.249%
Cn1c(=O)c2[nH]c(N3CCN(c4cccc(O)c4)CC3)nc2n(C)c1=O | inactive: -0.157%
CCOC(=O)N1CCC2(CC1)C(C#N)=C(N)OC1=C2C(=O)CC(C)(C)C1 | inactive: 0.294%
CCOC(=O)c1cc2nc(Nc3ccc(OC)cc3)sc2s1 | inactive: 0.48%
NCc1nc(-c2ccc(Cl)cc2)no1 | inactive: -0.361%
O=C(CSc1nnc(CNC(=O)c2ccccc2F)o1)NCCc1ccccc1 | inactive: 0.0457%
CCN(C[C@H]1N[C@@](CC)(C(=O)OC)[C@H]2C(=O)N(C)C(=O)[C@@H]12)S(=O)(=O)c1ccc(C(F)(F)F)cc1 | inactive: 0.062%
O=C(NCCCNCCCNC(=O)c1ccc(/C=N/O)nc1)c1ccc(/C=N/O)nc1 | inactive: 0.197%
CCc1ccc([C@@H]2CC=C(C(=O)O)[C@H](c3ccc(C(C)(C)C)cc3)N2S(=O)(=O)c2ccc(C)cc2)cc1 | inactive: 0.486%
O=[N+]([O-])c1ccccc1NCc1ccc(Cl)cc1 | inactive: 0.398%
COC(=O)[C@]1(C)N[C@H](CN(C)C(=O)Nc2ccccc2)[C@@H]2C(=O)N(Cc3ccccc3)C(=O)[C@@H]21 | inactive: 0.459%
C[C@H](CO)N1C[C@H](C)[C@@H](CN(C)S(C)(=O)=O)Oc2ccc(N(C)C)cc2C1=O | inactive: 0.057%
COc1ccc(-n2cc(CNCCc3cscn3)c(-c3ccccc3Cl)n2)cc1 | inactive: 0.131%
Cc1ccccc1NC(=S)c1nc2ccccc2[nH]1 | inactive: -0.36%

An excerpt from above in order of SMILES length, smallest number first:
SMILES | activity change, negative = inhibition
Cc1cc(C)nc(NCc2ccc(Cl)cc2)n1 | inactive: -0.249%
O=C(CSc1nnc(CNC(=O)c2ccccc2F)o1)NCCc1ccccc1 | inactive: 0.0457%
O=C(NCCCNCCCNC(=O)c1ccc(/C=N/O)nc1)c1ccc(/C=N/O)nc1 | inactive: 0.197%
C[C@H](CO)N1C[C@H](C)[C@@H](CN(C)S(C)(=O)=O)Oc2ccc(N(C)C)cc2C1=O | inactive: 0.057%

(listing goes on)

SMILES | activity change, negative = inhibition
O=C(Nc1ccc(Cl)c(C(F)(F)F)c1)NC1CC2CCCC(C1)N2Cc1ccccc1 (centres undefined) | inactive: 1.15%
CC(=O)N1CCc2cc(S(=O)(=O)NC(CC(C)C)C(=O)Nc3cc(C(=O)O)ccc3C)ccc21 (centres undefined) | inactive: 0.617%
NC(=O)NC(=O)CSc1nnc(-c2ccco2)n1Cc1ccccc1 | inactive: 0.0902%
O=C1/C(=C/c2cccs2)COc2ccccc21 | inactive: 0.625%
CNC[C@@H]1Oc2c(NC(=O)Nc3ccccc3)cccc2C(=O)N([C@@H](C)CO)C[C@H]1C | inactive: 0.196%
COc1ccc(/C=N/n2c(=O)[nH]c3c([nH]c4ccc(Br)cc43)c2=O)cc1CN1CCOCC1 | inactive: 0.399%
CCOc1ccc(N2CC(C(=O)Nc3nnc(Cc4ccc(OC)cc4)s3)CC2=O)cc1 (centres undefined) | inactive: 0.166%
CCOC(=O)c1csc(N/N=C2\CCc3ccccc32)n1 | inactive: 0.158%
CNC(=O)c1sccc1-n1cccc1 | inactive: 0.0853%
OC1(c2cccc(F)c2)CCN(Cc2ccncc2)CC1 | inactive: 0.341%
CCCC(=O)Nc1ccc(Oc2ccc(NC(=O)CCC)cc2)cc1 | inactive: 0.3%
Cc1cccc(N2CCN(C(=O)c3ccc(CS(=O)(=O)c4ccccc4C)o3)CC2C)c1 (centres undefined) | inactive: -0.0775%
Cc1cccc(OCCCn2c(=O)oc3ccc(C)cc32)c1 | inactive: -0.266%
COc1ccc(C2CC(c3cccs3)=NN2S(=O)(=O)c2ccc(C)cc2)cc1 (centres undefined) | inactive: 0.501%
Cc1noc(C)c1S(=O)(=O)N(C)C[C@H]1Oc2c(cccc2N(C)C)C(=O)N([C@H](C)CO)C[C@@H]1C | inactive: -0.198%
c1ccc2c(c1)ccc1nnc(-c3ccc4c(c3)OCO4)n12 | inactive: 0.283%
O=C(Nc1ccccc1C(=O)N1CCOCC1)c1noc2c1CCCC2 | inactive: 0.794%
O=C(Nc1nnc(CCS(=O)(=O)c2ccc3ccccc3c2)s1)c1cccs1 | inactive: -1.14%
O=C(c1ccc(Cn2cc([N+](=O)[O-])cn2)o1)N1CCCCCC1 | inactive: 0.287%
CC1=C(C(=O)OC(C)C)C(c2ccccc2)NC(=S)N1C (centres undefined) | inactive: -0.136%
CCOC(=O)c1sc(NC(=O)CSc2nnc(-c3ccc(OC)cc3)n2CCOC)nc1C | inactive: 0.362%
COc1ccc(-c2nn(-c3ccccc3)cc2CNC(C)Cn2cncn2)c(F)c1 (centres undefined) | inactive: 0.563%
CC(=O)c1c(C(C)=O)c(C)n(-c2nc(-c3cccs3)c(C)s2)c1C | inactive: -0.518%
O=C(CCc1ccc(S(=O)(=O)NCc2ccccc2)cc1)NCc1ccc2c(c1)OCO2 | inactive: -0.263%
CSc1nc(N)nc2c1ncn2CC(=O)N[C@H](C)c1cccc2ccccc12 | inactive: -0.21%
CCOc1ccc(C(=O)Nc2nnc(C(C)C)s2)cc1OCC | inactive: 0.274%
C[C@H]1CN(CCc2ccccc2)C(=O)[C@@H]1CC(=O)NCc1ccccc1 | inactive: -0.42%
